Source: the supplement of paper PMC8920030
The source gives many values for each of these; only a part stands here. Where a SMILES comes first, the peptide text is derived from it. Bridges are numbered along the chain shown (N, C = ends). [ ]: non-standard residue; d: D form. The star is where a group is joined. Heptanoyl(5-Me) = CCC(C)CCCC(=O)*; Dab = NCC[C@H](N)C(=O)O

Assays:
Settings in all cases: growth mode: biofilm, 24 h; exposure time: 24 h
tobramycin [1] = compound: T1, NC[C@H]1O[C@H](O[C@H]2[C@H](O)[C@@H](O[C@H]3O[C@H](CO)[C@@H](O)[C@H](N)[C@H]3O)[C@H](N)C[C@@H]2N)[C@H](N)C[C@@H]1O [tobramycin]; assay: minimum concentration of killing, 4-log CFU reduction of biofilm (MCK99.99); higher = more biofilm tolerance
Experimental: (§1)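 Clinical P. aeruginosa isolates were grown as static biofilms for 24 h at 37 °C in LB in half-area 96-well plates, then exposed for 24 h to tobramycin at 1, 4, 16, 64, 256 or […]. Surviving CFU were counted by spotting serial dilutions. MCK is the lowest tested concentration giving the stated log reduction in CFU versus an untreated control; '>1024' means the reduction was not reached at the top dose, and 1 is the lowest dose tested (≤1).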

tobramycin [2] = compound: T1, tobramycin; assay: minimum concentration of killing, 1-log CFU reduction of biofilm (MCK90); higher = more biofilm tolerance
Experimental: as §1

colistin [3] = compound: T2, CCC(C)CCCC(=O)N[C@@H](CCN)C(=O)N[C@H](C(=O)N[C@@H](CCN)C(=O)N[C@H]1CCNC(=O)[C@H]([C@@H](C)O)NC(=O)[C@H](CCN)NC(=O)[C@H](CCN)NC(=O)[C@H](CC(C)C)NC(=O)[C@@H](CC(C)C)NC(=O)[C@H](CCN)NC1=O)[C@@H](C)O [colistin]; assay: as above
Experimental: as §1, with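 “colistin” for “tobramycin”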

colistin [4] = compound: T2, colistin; assay: minimum concentration eradicating biofilm below detection limit (MCK-E); higher = more biofilm tolerance
Experimental: as §1, with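 “colistin” for “tobramycin”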

tobramycin [5] = compound: T1, tobramycin; assay: as above
Experimental: as §1

colistin [6] = compound: T2, colistin; assay: minimum concentration of killing, 4-log CFU reduction of biofilm (MCK99.99); higher = more biofilm tolerance
Experimental: as §1, with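 “colistin” for “tobramycin”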

colistin [7] = compound: T2, colistin; assay: minimum concentration of killing, 2-log CFU reduction of biofilm (MCK99); higher = more biofilm tolerance
Experimental: as §1, with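 “colistin” for “tobramycin”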

tobramycin [8] = compound: T1, tobramycin; assay: as above
Experimental: as §1

Test System	minimum concentration of killing (tobramycin [1])	minimum concentration of killing (tobramycin [2])	minimum concentration of killing (colistin [3])	minimum concentration eradicating biofilm below detection limit (colistin [4])	minimum concentration eradicating biofilm below detection limit (tobramycin [5])	minimum concentration of killing (colistin [6])	minimum concentration of killing (colistin [7])	minimum concentration of killing (tobramycin [8])
Pseudomonas aeruginosa clinical isolate ZG302431	64 µg/mL	4 µg/mL	256 µg/mL	256 µg/mL	256 µg/mL	256 µg/mL	256 µg/mL	16 µg/mL
Pseudomonas aeruginosa clinical isolate ZG302432	256 µg/mL	4 µg/mL	64 µg/mL	256 µg/mL	256 µg/mL	256 µg/mL	64 µg/mL	4 µg/mL
Pseudomonas aeruginosa clinical isolate ZG302442	256 µg/mL	256 µg/mL	64 µg/mL	256 µg/mL	256 µg/mL	256 µg/mL	256 µg/mL	256 µg/mL
Pseudomonas aeruginosa clinical isolate ZG302451	256 µg/mL	4 µg/mL	64 µg/mL	256 µg/mL	256 µg/mL	256 µg/mL	256 µg/mL	4 µg/mL
Pseudomonas aeruginosa clinical isolate ZG314696	64 µg/mL	4 µg/mL	64 µg/mL	256 µg/mL	256 µg/mL	256 µg/mL	64 µg/mL	4 µg/mL
Pseudomonas aeruginosa clinical isolate ZG314738	64 µg/mL	64 µg/mL	256 µg/mL	256 µg/mL	256 µg/mL	256 µg/mL	256 µg/mL	64 µg/mL
Pseudomonas aeruginosa clinical isolate ZG314777	64 µg/mL	16 µg/mL	64 µg/mL	256 µg/mL	64 µg/mL	256 µg/mL	64 µg/mL	16 µg/mL
Pseudomonas aeruginosa clinical isolate ZG316694	64 µg/mL	≤ 1 µg/mL	256 µg/mL	256 µg/mL	64 µg/mL	256 µg/mL	256 µg/mL	4 µg/mL
Pseudomonas aeruginosa clinical isolate ZG316704	256 µg/mL	4 µg/mL	256 µg/mL	256 µg/mL	256 µg/mL	256 µg/mL	256 µg/mL	16 µg/mL
Pseudomonas aeruginosa clinical isolate ZG316716	4 µg/mL	≤ 1 µg/mL	64 µg/mL	256 µg/mL	64 µg/mL	256 µg/mL	64 µg/mL	4 µg/mL
Pseudomonas aeruginosa clinical isolate ZG316717	64 µg/mL	16 µg/mL	16 µg/mL	1020 µg/mL	1020 µg/mL	256 µg/mL	64 µg/mL	16 µg/mL
Pseudomonas aeruginosa clinical isolate ZG316722	256 µg/mL	4 µg/mL	256 µg/mL	256 µg/mL	256 µg/mL	256 µg/mL	256 µg/mL	16 µg/mL
Pseudomonas aeruginosa clinical isolate ZG02488718	256 µg/mL	≤ 1 µg/mL	64 µg/mL	256 µg/mL	256 µg/mL	256 µg/mL	64 µg/mL	4 µg/mL
Pseudomonas aeruginosa clinical isolate ZG02512057	256 µg/mL	16 µg/mL	64 µg/mL	64 µg/mL	1020 µg/mL	64 µg/mL	64 µg/mL	16 µg/mL
Pseudomonas aeruginosa clinical isolate ZG5003493	64 µg/mL	≤ 1 µg/mL	16 µg/mL	256 µg/mL	1020 µg/mL	256 µg/mL	64 µg/mL	4 µg/mL
Pseudomonas aeruginosa clinical isolate ZG8510487	1020 µg/mL	16 µg/mL	64 µg/mL	256 µg/mL	> 1020 µg/mL	256 µg/mL	256 µg/mL	256 µg/mL
Pseudomonas aeruginosa clinical isolate ZG8038581181	1020 µg/mL	16 µg/mL	64 µg/mL	256 µg/mL	1020 µg/mL	256 µg/mL	256 µg/mL	256 µg/mL
